Measured values published in paper PMC6375917 (2019).
No constants are given. Whether binding was seen depends on the method and setting. In cells and extracts the contact can be indirect. Some binding calls cover weakened binding; strength is not graded here. Where a sequence is shown, tags or fusion partners need not be part of it.

How the values were obtained:
Assay in all cases: pull-down; mitochondria from cells expressing His-tagged Tim50 versions solubilized with 1% digitonin, incubated with Ni-NTA agarose beads at 4 °C, eluted with Laemmli buffer with 300 mM imidazole; immunoblot with Tim50, Tim17 and Tim23 antibodies
[1] = target: T1, His-tagged Tim50 N283Y/D293N (yeast) (UniProt Q02776)
T1 sequence: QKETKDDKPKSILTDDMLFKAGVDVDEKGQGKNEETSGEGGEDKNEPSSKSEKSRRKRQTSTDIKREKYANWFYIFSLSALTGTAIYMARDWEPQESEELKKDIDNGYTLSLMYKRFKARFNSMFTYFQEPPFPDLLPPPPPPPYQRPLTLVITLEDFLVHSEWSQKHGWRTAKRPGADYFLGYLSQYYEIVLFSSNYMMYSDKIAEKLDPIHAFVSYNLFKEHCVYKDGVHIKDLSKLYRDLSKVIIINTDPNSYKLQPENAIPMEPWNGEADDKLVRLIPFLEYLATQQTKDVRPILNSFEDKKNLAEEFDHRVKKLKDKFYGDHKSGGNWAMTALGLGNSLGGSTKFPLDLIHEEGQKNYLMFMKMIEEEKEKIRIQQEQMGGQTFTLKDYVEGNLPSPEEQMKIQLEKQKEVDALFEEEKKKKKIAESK

[2] = target: T2, His-tagged Tim50 mutant #1 (L202V,F237L,Y261S,V274E,Y299S) (yeast) (UniProt Q02776)
T2 sequence: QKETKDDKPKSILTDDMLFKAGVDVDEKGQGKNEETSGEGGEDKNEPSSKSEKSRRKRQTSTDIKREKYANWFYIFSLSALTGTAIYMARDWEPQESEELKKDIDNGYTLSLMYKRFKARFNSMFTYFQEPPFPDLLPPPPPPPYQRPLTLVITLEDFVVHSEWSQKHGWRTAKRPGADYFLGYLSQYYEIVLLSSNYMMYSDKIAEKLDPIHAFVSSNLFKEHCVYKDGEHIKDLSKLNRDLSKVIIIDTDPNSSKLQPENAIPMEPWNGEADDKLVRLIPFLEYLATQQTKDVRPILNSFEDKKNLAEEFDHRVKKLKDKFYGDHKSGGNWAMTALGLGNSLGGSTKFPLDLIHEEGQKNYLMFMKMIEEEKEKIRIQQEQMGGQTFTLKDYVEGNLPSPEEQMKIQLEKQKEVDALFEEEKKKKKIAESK

[3] = target: T3, His-tagged Tim50 L194H (yeast) (UniProt Q02776)
T3 sequence: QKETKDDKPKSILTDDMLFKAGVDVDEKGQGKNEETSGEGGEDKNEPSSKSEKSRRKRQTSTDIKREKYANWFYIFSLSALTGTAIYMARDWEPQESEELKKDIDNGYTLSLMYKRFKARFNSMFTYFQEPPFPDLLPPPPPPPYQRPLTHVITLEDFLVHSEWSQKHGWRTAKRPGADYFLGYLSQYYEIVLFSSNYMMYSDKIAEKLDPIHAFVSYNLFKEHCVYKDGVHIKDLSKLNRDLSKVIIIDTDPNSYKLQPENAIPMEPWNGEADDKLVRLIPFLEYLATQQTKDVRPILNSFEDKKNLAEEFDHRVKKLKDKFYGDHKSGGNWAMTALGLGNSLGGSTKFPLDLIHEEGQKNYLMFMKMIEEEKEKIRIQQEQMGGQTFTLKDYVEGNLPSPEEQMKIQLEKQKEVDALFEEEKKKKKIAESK

[4] = target: T4, His-tagged Tim50 A221D/D337V (yeast) (UniProt Q02776)
T4 sequence: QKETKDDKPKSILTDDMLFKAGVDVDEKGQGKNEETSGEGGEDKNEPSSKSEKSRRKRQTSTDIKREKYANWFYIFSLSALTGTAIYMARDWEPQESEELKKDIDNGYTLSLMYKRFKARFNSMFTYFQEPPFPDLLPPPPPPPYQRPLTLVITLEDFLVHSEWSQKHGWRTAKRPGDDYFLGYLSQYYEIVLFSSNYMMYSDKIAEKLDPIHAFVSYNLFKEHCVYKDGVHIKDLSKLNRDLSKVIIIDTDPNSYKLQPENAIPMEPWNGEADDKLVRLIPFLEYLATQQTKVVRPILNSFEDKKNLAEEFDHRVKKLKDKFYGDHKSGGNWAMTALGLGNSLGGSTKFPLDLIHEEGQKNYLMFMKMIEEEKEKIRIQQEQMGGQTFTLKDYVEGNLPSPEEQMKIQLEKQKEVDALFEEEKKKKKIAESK

[5] = target: T5, His-tagged but otherwise wild type Tim50 (yeast) (UniProt Q02776)
T5 sequence: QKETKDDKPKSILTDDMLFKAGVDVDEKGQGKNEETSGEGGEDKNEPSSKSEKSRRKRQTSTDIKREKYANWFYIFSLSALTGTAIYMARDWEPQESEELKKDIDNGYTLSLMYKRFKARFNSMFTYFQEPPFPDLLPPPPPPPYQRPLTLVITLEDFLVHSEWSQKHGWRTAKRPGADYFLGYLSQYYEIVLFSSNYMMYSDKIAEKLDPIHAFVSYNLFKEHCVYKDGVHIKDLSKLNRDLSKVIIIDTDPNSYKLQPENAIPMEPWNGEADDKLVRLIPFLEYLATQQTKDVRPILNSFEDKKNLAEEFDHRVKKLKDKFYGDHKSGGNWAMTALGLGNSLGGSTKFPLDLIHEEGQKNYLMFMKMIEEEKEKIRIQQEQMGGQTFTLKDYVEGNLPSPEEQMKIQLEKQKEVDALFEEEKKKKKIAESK

Measured: binding

B1: Tim23 (protein, UniProt P32897 1-222)
chain: MSWLFGDKTPTDDANAAVGGQDTTKPKELSLKQSLGFEPNINNIISGPGGMHVDTARLHPLAGLDKGVEYLDLEEEQLSSLEGSQGLIPSRGWTDDLCYGTGAVYLLGLGIGGFSGMMQGLQNIPPNSPGKLQLNTVLNHITKRGPFLGNNAGILALSYNIINSTIDALRGKHDTAGSIGAGALTGALFKSSKGLKPMGYSSAMVAAACAVWCSVKKRLLEK
binds: all assays above

B2: Tim17 (protein, UniProt P39515 1-158)
chain: MSADHSRDPCPIVILNDFGGAFAMGAIGGVVWHGIKGFRNSPLGERGSGAMSAIKARAPVLGGNFGVWGGLFSTFDCAVKAVRKREDPWNAIIAGFFTGGALAVRGGWRHTRNSSITCACLLGVIEGVGLMFQRYAAWQAKPMAPPLPEAPSSQPLQA
binds: all assays above
